From article PMC6515687 come the findings set out here.

The chains behind the UniProt entries cited, without tags or fusion partners.
UniProt Q6PDM2: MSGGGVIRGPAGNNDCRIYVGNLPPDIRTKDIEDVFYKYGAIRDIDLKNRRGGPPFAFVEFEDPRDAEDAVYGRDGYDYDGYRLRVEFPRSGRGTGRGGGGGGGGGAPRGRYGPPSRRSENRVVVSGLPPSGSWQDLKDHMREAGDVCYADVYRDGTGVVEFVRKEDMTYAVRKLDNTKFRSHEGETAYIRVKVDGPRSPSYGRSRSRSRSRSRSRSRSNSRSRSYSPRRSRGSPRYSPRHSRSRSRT

Like-named read-outs stand apart in the source and are kept apart here. These are yes or no findings as the source states them, for the method shown. Binding seen in cells or lysates may run through a third protein. Some binding calls cover weakened binding; strength is not graded here. For some of these results: Tags and fused reporters may be left off the sequences shown.

Test [1] has as its target T1, FLAG-MOV10 (mouse) (UniProt P23249).
T1 sequence: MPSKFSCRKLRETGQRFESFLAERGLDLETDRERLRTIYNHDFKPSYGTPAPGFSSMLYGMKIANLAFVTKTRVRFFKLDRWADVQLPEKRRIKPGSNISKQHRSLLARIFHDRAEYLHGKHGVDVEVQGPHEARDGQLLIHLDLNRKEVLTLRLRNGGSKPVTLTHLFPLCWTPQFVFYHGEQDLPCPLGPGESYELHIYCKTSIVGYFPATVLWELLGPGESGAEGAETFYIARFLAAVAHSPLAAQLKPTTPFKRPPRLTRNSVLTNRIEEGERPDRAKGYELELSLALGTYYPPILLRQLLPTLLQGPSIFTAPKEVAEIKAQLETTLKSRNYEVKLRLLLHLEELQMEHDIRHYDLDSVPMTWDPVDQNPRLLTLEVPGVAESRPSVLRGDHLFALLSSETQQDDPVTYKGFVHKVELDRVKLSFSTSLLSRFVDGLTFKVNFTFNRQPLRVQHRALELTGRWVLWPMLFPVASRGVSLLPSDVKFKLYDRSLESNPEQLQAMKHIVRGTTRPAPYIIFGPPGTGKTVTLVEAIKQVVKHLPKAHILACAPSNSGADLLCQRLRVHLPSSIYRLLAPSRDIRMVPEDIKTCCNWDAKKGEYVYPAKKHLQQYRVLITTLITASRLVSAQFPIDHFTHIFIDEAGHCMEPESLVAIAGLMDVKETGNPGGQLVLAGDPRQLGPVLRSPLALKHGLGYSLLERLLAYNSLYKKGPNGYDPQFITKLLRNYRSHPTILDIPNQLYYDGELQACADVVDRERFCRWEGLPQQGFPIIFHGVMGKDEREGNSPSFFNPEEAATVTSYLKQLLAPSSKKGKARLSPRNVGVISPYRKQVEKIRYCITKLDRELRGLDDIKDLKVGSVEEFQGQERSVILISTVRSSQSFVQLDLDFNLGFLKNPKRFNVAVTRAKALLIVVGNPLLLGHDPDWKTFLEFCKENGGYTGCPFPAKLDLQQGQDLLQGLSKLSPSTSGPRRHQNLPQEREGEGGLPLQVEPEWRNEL
Put plainly: co-IP; FLAG-MOV10 co-expressed with HA-SRSF1, HA-DDX5 or HA-DDX17 in HEK293T, 48 h; lysis in 50 mM Tris, 150 mM NaCl, 1 mM EDTA, 0.5% Triton, 10% glycerol; IP with anti-FLAG or anti-HA on protein A beads, 4 °C 3 h; western blot with anti-FLAG and anti-HA. (In western blotting, separated proteins are transferred to a membrane and probed.)

Test [2] concerns the target T2, MOV10 (Moloney leukemia virus 10), endogenous, nuclear fraction of P10 mouse testis (mouse (endogenous in P10 testis)) (UniProt P23249).
T2 sequence: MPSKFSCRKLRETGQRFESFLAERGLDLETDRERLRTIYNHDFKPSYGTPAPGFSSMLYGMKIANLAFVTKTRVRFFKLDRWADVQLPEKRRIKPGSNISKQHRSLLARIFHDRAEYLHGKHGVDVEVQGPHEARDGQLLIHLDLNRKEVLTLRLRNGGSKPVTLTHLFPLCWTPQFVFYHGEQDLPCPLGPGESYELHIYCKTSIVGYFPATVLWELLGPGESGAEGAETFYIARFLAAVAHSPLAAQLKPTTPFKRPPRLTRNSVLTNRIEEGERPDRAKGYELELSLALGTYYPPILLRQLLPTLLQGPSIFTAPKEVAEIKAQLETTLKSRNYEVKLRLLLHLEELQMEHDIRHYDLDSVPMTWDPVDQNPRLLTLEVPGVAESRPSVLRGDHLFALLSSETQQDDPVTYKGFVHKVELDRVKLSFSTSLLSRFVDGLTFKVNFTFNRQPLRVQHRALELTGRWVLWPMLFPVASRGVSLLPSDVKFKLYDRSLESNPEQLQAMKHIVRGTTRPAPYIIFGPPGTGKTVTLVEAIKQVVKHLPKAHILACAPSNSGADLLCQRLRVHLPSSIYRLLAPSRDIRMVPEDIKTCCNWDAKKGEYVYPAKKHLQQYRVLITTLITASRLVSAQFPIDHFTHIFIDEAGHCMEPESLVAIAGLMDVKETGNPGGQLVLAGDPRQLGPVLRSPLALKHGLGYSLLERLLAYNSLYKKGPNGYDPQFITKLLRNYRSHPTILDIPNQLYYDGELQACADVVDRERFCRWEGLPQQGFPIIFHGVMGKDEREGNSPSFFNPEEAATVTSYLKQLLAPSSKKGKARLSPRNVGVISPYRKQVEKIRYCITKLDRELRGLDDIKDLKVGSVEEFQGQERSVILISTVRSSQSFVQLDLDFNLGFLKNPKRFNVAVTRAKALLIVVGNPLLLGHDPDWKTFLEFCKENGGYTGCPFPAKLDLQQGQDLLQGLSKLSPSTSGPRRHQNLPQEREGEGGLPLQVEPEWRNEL
Put plainly: co-IP; endogenous MOV10 IP from nuclear lysate of P10 mouse testis, western blot of the IP complex (Fig. 7d).

Test [3] has as its target HA-SRSF1 (mouse) (UniProt Q6PDM2). In words: co-IP; FLAG-MOV10 co-expressed with HA-SRSF1, HA-DDX5 or HA-DDX17 in HEK293T, 48 h; lysis in 50 mM Tris, 150 mM NaCl, 1 mM EDTA, 0.5% Triton, 10% glycerol; IP with anti-FLAG or anti-HA on protein A beads, 4 °C 3 h; western blot with anti-FLAG and anti-HA.
The target in test [4] is T2, MOV10 (Moloney leukemia virus 10), endogenous, nuclear fraction of P10 mouse testis (mouse (endogenous in P10 testis)). Put plainly: co-IP; endogenous MOV10 IP from nuclear lysate of P10 mouse testis, western blot of the IP complex (Fig. 7d). This is another data set of the same source.

With HA-SRSF1 (from UniProt Q6PDM2 1-248), the binding entry in test [1] was “binds”.
With “SRSF1, endogenous, P10 mouse testis (from UniProt Q6PDM2 1-248)”, the binding result in test [2] was “binds”.

B1: FLAG-MOV10 (protein, UniProt P23249 1-1004)
chain: MPSKFSCRKLRETGQRFESFLAERGLDLETDRERLRTIYNHDFKPSYGTPAPGFSSMLYGMKIANLAFVTKTRVRFFKLDRWADVQLPEKRRIKPGSNISKQHRSLLARIFHDRAEYLHGKHGVDVEVQGPHEARDGQLLIHLDLNRKEVLTLRLRNGGSKPVTLTHLFPLCWTPQFVFYHGEQDLPCPLGPGESYELHIYCKTSIVGYFPATVLWELLGPGESGAEGAETFYIARFLAAVAHSPLAAQLKPTTPFKRPPRLTRNSVLTNRIEEGERPDRAKGYELELSLALGTYYPPILLRQLLPTLLQGPSIFTAPKEVAEIKAQLETTLKSRNYEVKLRLLLHLEELQMEHDIRHYDLDSVPMTWDPVDQNPRLLTLEVPGVAESRPSVLRGDHLFALLSSETQQDDPVTYKGFVHKVELDRVKLSFSTSLLSRFVDGLTFKVNFTFNRQPLRVQHRALELTGRWVLWPMLFPVASRGVSLLPSDVKFKLYDRSLESNPEQLQAMKHIVRGTTRPAPYIIFGPPGTGKTVTLVEAIKQVVKHLPKAHILACAPSNSGADLLCQRLRVHLPSSIYRLLAPSRDIRMVPEDIKTCCNWDAKKGEYVYPAKKHLQQYRVLITTLITASRLVSAQFPIDHFTHIFIDEAGHCMEPESLVAIAGLMDVKETGNPGGQLVLAGDPRQLGPVLRSPLALKHGLGYSLLERLLAYNSLYKKGPNGYDPQFITKLLRNYRSHPTILDIPNQLYYDGELQACADVVDRERFCRWEGLPQQGFPIIFHGVMGKDEREGNSPSFFNPEEAATVTSYLKQLLAPSSKKGKARLSPRNVGVISPYRKQVEKIRYCITKLDRELRGLDDIKDLKVGSVEEFQGQERSVILISTVRSSQSFVQLDLDFNLGFLKNPKRFNVAVTRAKALLIVVGNPLLLGHDPDWKTFLEFCKENGGYTGCPFPAKLDLQQGQDLLQGLSKLSPSTSGPRRHQNLPQEREGEGGLPLQVEPEWRNEL
Take B1: the binding result in test [3] is given as “binds”.

B2: MOV10L1 (Moloney leukemia virus 10 like-1), endogenous, P10 mouse testis (protein, UniProt Q99MV5 1-1187)
chain: MIDDLIYFSNDAVTSTVLLNVGQEVIAVVEENKVSNGLKAIRVEAVSDKWEDDSKNSSKGLSDSSPRVLIGCVTSMLEGAGYISQTTYFSLESVCEGFHPCKGDWVEAEYWIRPGTWSSEAISVKPLRYKRVDKVCISSLCGRNGVIEDSIFFSLDSLKLPEGYIPRRHDIVNAVVVESSQSCYIWRALCMTPVKRDATLGEAPQEPYGALLLKNKGDIEVTRMTSFGTLKEGESKSIVIWIENKGKFSRELVSCRLANWDKAHQFRFETQGRSKSCPGAAAGSVPEGENVNSLNHHREDKTDEIPESRLANSTEISPDGCACKEESREKGNTPEKQEPEPGGLIPPGEKTHIVVTCSAKNPGRCKELLLLCFSDFLIGRHLEVSVVSSEEALIAVREPFSWKKPKSSQTLVSAKTTVVVTTQKRNSRRQLPSFLPQYPIPDRLKKCVEQKIDILTFQPLLAELLNMSNYKEKFSTLLWLEEIHAEIELKEYNMSRVVLKRKGDLLVLEVPGLAESRPSLYAGDKLILKSQEYNGHVIEYIGYVMEIHEEDVTLKLNPGFEQMYNFEPMDVEFTYNRTTSRRCHYALEQVIHLGVKVLFPEEIILQSPQVTGNWSLAQDTKNDGQSITNITRNDGQSMTKVTRNDSQSITNIIRNDGQSITNVTRNDGQPITKVTRNNSQSITNITRNDGQPITKNKKTVKDQTKHTTEERHVGTTDQPEKASSTAETMDEIQIPKARDKEFFNPVLNENQKLAVRRILSGDCRPLPYILFGPPGTGKTVTIIEAVLQVHYALPDSRILVCAPSNSAADLVCLRLHESKVPKPAAMVRVNATCRFEETIIDAIKPYCRDGEDIWRASRFRIIITTCSSAGLFYQIGVRVGYFTHVFVDEAGQASEPECLIPLGLISDINGQIVLAGDPMQLGPVIKSRLAMAYGLNVSMLERLMSRPAYLRDENAFGACGAYNPLLVTKLVKNYRSHSALLALPSRLFYHRELEVCADPKVVTSLLGWEKLPRKGFPLIFHGVRGNEAREGRSPSWFSPAEAVQVMRYCCLLARSVSSQVSSKDIGVITPYRKQVEKIKILLRNVDLTDIKVGSVEEFQGQEYLVIVISTVRSNEDRFEDDRYFLGFLSNSKRFNVAITRPKALLIILGNPHVLVRDPCFGALLEYSVSNGVYTGCDLPPELQALQK
B2: in test [4], the binding result is “no binding”.
